Test: Fmoc solid-phase peptide synthesis; 2-chlorotrityl chloride resin (loading 1.6 mmol/g); HBTU, DIEA, HOBt
Details: whole synthesis, analytical HPLC

Substance: (Pro-Mop-Gly)10
- final HPLC purity: >90%

From US7858741B2 (Wisconsin Alumni Research Foundation, priority 2008, dated 2010)
